What all share (assay): two-hybrid; Psk1 constructs as bait (pGBT8), Mip1 constructs as prey (pGAD GH); budding yeast Y2HGold; ADE2 and HIS3 reporters (adenine and histidine auxotrophic markers)
The target in assay [1] is Psk1 P2A, two-hybrid bait (S. pombe) (UniProt Q12706).
The target in assay [2] is Psk1 F4A, two-hybrid bait (S. pombe) (UniProt Q12706).
Assay [3] addresses Psk1 V3A, two-hybrid bait (S. pombe) (UniProt Q12706).
Assay [4] concerns the target Psk1 D7A, two-hybrid bait (S. pombe) (UniProt Q12706).
Assay [5] addresses Psk1 H9A, two-hybrid bait (S. pombe) (UniProt Q12706).
Assay [6] has as its target Psk1 F6A, two-hybrid bait (S. pombe) (UniProt Q12706).
In assay [7] the target is Psk1 D10A, two-hybrid bait (S. pombe) (UniProt Q12706).
In assay [8] the target is Psk1 E8A, two-hybrid bait (S. pombe) (UniProt Q12706).
Assay [9] addresses Psk1 M5A, two-hybrid bait (S. pombe) (UniProt Q12706).

Protein sequences, listed by entry. Tags and fused reporters are not part of them. Lines headed by an entry give the natural chain unless they say otherwise; changes in a name come on top.
UniProt Q12706: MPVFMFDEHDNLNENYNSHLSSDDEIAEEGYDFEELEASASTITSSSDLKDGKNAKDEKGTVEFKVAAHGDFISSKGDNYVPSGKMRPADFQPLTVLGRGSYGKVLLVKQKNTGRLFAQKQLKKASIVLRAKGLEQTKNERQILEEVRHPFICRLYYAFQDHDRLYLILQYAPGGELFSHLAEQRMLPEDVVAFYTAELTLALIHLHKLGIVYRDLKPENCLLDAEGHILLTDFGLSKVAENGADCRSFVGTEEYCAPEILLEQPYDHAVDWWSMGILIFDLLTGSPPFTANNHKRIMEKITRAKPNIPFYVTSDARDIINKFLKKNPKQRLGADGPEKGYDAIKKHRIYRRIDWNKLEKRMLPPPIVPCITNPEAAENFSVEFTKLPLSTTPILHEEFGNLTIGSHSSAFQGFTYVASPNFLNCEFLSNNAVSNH
UniProt P87141: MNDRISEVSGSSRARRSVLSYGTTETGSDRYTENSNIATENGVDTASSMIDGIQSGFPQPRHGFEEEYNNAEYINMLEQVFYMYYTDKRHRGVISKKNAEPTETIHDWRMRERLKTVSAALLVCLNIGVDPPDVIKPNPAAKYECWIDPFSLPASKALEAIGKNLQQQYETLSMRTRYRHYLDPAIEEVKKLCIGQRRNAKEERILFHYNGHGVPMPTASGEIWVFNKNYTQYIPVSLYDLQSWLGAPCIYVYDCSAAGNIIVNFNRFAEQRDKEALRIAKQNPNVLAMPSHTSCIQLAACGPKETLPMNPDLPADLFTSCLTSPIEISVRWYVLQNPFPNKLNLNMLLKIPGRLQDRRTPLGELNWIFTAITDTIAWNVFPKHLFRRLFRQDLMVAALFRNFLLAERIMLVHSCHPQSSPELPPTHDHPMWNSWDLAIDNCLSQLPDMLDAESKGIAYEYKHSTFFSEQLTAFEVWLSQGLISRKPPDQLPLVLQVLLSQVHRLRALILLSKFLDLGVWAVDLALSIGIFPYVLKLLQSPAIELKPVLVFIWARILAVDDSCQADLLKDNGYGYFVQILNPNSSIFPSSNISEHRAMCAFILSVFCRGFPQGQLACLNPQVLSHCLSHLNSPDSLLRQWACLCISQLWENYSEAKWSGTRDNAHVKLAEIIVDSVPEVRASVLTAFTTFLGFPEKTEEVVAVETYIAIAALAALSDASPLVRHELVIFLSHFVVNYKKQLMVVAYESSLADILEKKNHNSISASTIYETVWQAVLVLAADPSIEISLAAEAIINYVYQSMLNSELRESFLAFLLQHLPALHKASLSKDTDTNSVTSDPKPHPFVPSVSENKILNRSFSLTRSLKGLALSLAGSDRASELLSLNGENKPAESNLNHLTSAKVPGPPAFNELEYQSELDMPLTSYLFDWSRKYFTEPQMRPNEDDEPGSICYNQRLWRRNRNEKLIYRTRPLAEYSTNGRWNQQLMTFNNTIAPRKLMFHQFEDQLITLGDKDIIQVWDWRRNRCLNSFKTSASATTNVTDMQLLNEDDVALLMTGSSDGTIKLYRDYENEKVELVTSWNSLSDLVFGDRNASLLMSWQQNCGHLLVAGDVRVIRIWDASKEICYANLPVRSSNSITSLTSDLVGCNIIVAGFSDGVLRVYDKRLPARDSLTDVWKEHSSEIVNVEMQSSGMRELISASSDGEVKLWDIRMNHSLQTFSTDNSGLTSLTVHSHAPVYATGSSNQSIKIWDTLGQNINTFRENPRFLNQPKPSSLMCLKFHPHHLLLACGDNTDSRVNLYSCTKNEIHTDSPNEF

The values below come from article PMC8542387 (2021).

No constants are given. Whether binding was seen depends on the method and setting. For part of these data: Binding can be weak; no strength is given.

For “Mip1 (fission yeast RAPTOR ortholog), two-hybrid prey (from UniProt P87141 1-1313)”, the binding entry in assay [1] was “binds”; in assay [2], “no binding”; in [3], “no binding”; in assay [4] it was “no binding”; in assay [5], “binds”; in [6], “no binding”. The binding result in assay [7], in assay [8] and in [9] was “binds” in each case.
